# Measurements from paper PMC9930429, “Wogonin attenuates the pathogenicity of Streptococcus pneumoniae by double‐target inhibition of Pneumolysin and Sortase A” (Journal of Cellular and Molecular Medicine, 2023).
# These are yes or no findings as the source states them, for the method shown. Some entries that bind do so weakly or less than the wild type.
# T1: Pneumolysin (PLY) (Streptococcus pneumoniae), P0C2J9
# T1 chain: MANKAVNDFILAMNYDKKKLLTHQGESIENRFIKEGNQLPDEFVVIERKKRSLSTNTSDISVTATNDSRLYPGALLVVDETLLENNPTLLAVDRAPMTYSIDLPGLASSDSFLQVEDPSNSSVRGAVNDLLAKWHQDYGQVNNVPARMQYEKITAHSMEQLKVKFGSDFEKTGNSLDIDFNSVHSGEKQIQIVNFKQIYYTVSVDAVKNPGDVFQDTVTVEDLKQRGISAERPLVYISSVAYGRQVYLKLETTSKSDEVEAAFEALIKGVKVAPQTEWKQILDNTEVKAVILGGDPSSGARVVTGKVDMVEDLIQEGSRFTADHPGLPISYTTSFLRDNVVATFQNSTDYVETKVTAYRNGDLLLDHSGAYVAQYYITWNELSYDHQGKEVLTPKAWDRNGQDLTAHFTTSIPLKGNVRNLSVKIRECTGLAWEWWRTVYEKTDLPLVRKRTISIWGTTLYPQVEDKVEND
# B1: Pneumolysin (PLY), P0C2J9 1-471 (protein)
# chain: T1 chain
# Target: T1, Pneumolysin (PLY) (Streptococcus …)
# Assay: SDS-PAGE of oligomers with western blot; recombinant PLY with wogonin (0, 16, 32, 64 ug/mL) at 37 °C for 1 h; loading buffer without beta-mercaptoethanol, 10 min at 55 °C; 10% SDS-PAGE; oligomers detected with an anti-PLY monoclonal antibody; both purified
# Settings: remark: other sources report otherwise
binder,measurement,value
B1,binding,binds
